Reference: the supplement of paper PMC10338343
± gives the standard deviation. The list shows a part of the results, in another mix than the full data. Many of these values have a large error.

System: MIWI (PIWIL1) piRISC loaded with L1MC piRNA (30 nt)
Assay: pre-steady-state target cleavage rate (min^-1); MIWI and MILI are mouse PIWI proteins and EfPiwi is from a freshwater sponge; tags in brackets are library labels; higher = faster piRNA-guided slicing of the target
Details: guide: L1MC piRNA 5'p-UAACUAAAUACUAUGCAAGCUGUAGGUCCU; auxiliary factor: none (no GTSF1)
Outline: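 The pre-steady-state cleavage rate was calculated from a burst-and-steady-state fit. Data came from Cleave-'n-Seq, in which […] transcribed, DNA-blocked target RNA library was mixed with 1 nM active affinity-purified piRISC carrying one synthetic guide, with or without 500 nM GTSF1 partner protein, in HEPES–potassium acetate buffer at 33 °C for 0–8 or 0–960 min. Uncleaved targets were sequenced and normalised to depth and to weakly complementary targets, three trials were pooled, and k3 was capped at 0.0001 min^-1.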
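Note: 1 nM active piRISC with 0.1 nM target library at 33 °C single turnover.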

Row | Sequence | pre-steady-state target cleavage rate
1 | UCCUGGUACAGCUUGCAAUGUAUUUACAAA | 0.0024 ± 0.0038
2 | UCGACCUACAGCUACGAUAGUAUUUACAAA | 0.000531 ± 0.0074
3 | UCCACCUACAGCUUGCAUAGUAAUUAGAAA | 0.00186 ± 0.0034
4 | AGGACCUACAGCUUGCUAUGUAUUUUCAAA | 0.000588 ± 0.012
5 | UCCACCUACAGCUUCCAUAGUAUUUACUUA | 0.000798 ± 0.0089
6 | UGGACCUACACGAUGCAUAGUAUUUUCAAA | 0.000729 ± 0.0064
7 | AGGACCUACAGCUUGCAAUCUAUUUAGUUA | 0.00262 ± 0.0028
8 | UCGACCUACAGCUUGCAUAGUAUAAUGAAA | 0.00217 ± 0.0036
9 | UCCUGGAUGUCGAACGUAUGUAUUUACAAA | 0.000156 ± 0.03
10 | UCCACCUACAGCUUGCUAAGUAUUUACAAA | 0.000243 ± 0.012
11 | UCGACCUACAGCUUGCAUAGUAAAUACAAA | 0.000931 ± 0.0065
12 | UGGACCUACAGCUACCAUAGUAUUUAGAAA | 0.00029 ± 0.0084
13 | UCCUGGAUGUCGAACGUUGGUAUUUAGUUA | 0.000266 ± 0.018
14 | UCCUGGAUGUGCUUGCAUAGUAUAUACUUA | 0.00231 ± 0.0038
15 | UGGACCUACAGCUUGCAAUCAUAAAUCAAA [g14:g29:cont:t1A] | 0.000227 ± 0.012
16 | UCCACCUACAGCUUGCAUACAUUUUACAAA | 0.000329 ± 0.015
17 | UCGACCUACAGCUUGCAUAGGUAUUUAGUUA | 0.0013 ± 0.0057
18 | UCGACCUACAGCUUGCAAUCUAUUUAGAAA | 0.000361 ± 0.0087
19 | UCCUGGAUCAGCUUGCAAUCAUAAAUCAAA [g14:g22:cont:t1A] | 0.000188 ± 0.019

Row | Sequence | pre-steady-state target cleavage rate
20 | AGGACCUACAGCUUGCAAUCUAUUUACAAA | 0.000172 ± 0.021
21 | UCCACCUACAGCAAGCAUAGUAUUUAGAAA | 0.000857 ± 0.0076
22 | UCCACCUACAGCUUGCAUACAAUUUAGAAA | 0.000507 ± 0.0093
23 | UCCUGGAUGAGCUUGCAUAGAUAUUAGAAA | 0.000932 ± 0.007
24 | UCCACCUACAGCUACGAUAGUAUUUAGAAA | 0.000241 ± 0.016
25 | UGGACCUACAGCUACGAUAGUAUUUUCAAA | 0.000158 ± 0.017
26 | UCCACCUACAGCUUGCAUUGUAUUUAGAAA | 0.00181 ± 0.0023
27 | UCGACCUACAGCUUGCAUUGUAUUUACAAA | 0.00192 ± 0.0036
28 | UCCUGGAUGUCGAACGUAAUGUAUUUAGUUA | 0.000156 ± 0.026
29 | UGGACCUACAGCUUCGAUAGUAUUUAGUUA | 0.00226 ± 0.0028
30 | UCCAGCUACAGCUUGCAUAGUAUUUUCAAA | 0.00263 ± 0.0028
31 | UCGACCUACAGCUUGCUUAGUAUUUACAAA | 0.00231 ± 0.0027
32 | UCCACCUACAGCAUCCAUAGUAUUUAGUUA | 0.00106 ± 0.0038
33 | UCGACCUACAGCUUCGAUAGUAUUUAGUAA | 0.00154 ± 0.0039
34 | UCCACCUACAGCUUGCAUAGUAUUAGUUA | 0.00119 ± 0.0064
35 | UCGACCUACAGCUUGCAUACAAUUUAGUAA | 0.00178 ± 0.0048
36 | UCCACCUACAGCUUGCAAUGUAUUUUCAAA | 0.000203 ± 0.017
37 | UCCUGGAUCAGCUUCGAUAGUAUUUACAAA | 0.000763 ± 0.0083
38 | UCGACCUACAGCUUGGUAAGUAUUUUCAAA | 0.000566 ± 0.0099

In another format: entries from further up
Row	Sequence	pre-steady-state target cleavage rate
9	UCCUGGAUGUCGAACGUAUGUAUUUACAAA	0.000156 ± 0.03
10	UCCACCUACAGCUUGCUAAGUAUUUACAAA	0.000243 ± 0.012
11	UCGACCUACAGCUUGCAUAGUAAAUACAAA	0.000931 ± 0.0065
